{"source": "patent US8835486B2", "about": "“Pharmaceutical formulation containing an HMG-COA reductase inhibitor and method for the preparation thereof” (priority 2006, dated 2014)", "assay": "Viscosity of aqueous solutions, Ostwald's technique", "format": "physicochemical", "conditions": "aqueous solution 0.1% w/v, 20° C.", "note": "Where a name gives a salt, the structure may show the parent alone. For at least one compound, name, drawing or mass did not settle the structure."}
{"smiles": "CC(C)n1c(/C=C/C(O)CC(O)CC(=O)O)c(-c2ccc(F)cc2)c2ccccc21", "note": "(stereo not drawn) [Fluvastatin Sodium (API), [R*,S*-(E)]-(±)-7-[3-(4-fluorophenyl)-1-(1-methylethyl)-1H-indol-2-yl]-3,5-dihydroxy-6-heptenoic acid, monosodium salt]", "values": [{"measurement": "viscosity", "value": 1.15, "unit": "cp"}]}
